The target of this assay is T1, myc-tagged PP6 (UniProt O00743).
T1 sequence: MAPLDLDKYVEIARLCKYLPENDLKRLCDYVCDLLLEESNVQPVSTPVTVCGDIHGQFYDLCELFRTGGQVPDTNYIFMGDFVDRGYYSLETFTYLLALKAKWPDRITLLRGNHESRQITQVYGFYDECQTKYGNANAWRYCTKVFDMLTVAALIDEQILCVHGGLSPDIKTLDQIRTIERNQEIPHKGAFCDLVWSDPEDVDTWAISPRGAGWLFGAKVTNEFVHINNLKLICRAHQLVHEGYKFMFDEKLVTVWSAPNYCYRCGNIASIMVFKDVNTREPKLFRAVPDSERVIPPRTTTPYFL
Kind of assay: co-IP.

Amino acid sequences for entries named in this document (tags omitted).
UniProt P16118: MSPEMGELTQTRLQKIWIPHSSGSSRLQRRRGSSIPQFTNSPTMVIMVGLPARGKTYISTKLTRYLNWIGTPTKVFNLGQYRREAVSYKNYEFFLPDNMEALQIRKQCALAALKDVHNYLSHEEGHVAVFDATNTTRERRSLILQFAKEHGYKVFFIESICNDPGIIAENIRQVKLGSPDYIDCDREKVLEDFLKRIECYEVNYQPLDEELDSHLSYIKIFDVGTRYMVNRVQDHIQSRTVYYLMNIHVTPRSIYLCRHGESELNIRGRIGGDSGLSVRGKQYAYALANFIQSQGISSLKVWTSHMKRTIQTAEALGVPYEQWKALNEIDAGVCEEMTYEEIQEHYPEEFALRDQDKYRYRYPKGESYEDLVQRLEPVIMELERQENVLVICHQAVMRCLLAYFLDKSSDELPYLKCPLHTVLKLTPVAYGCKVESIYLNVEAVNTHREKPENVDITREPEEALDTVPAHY

No constants are given. Whether binding was seen depends on the method and setting. In cells and extracts the contact can be indirect. Some results given as binding are weak or reduced against the parent protein; the word gives no strength. Tags and fused reporters may be left off the sequences shown.

As to “PFKFB1 in 293FT cells (from UniProt P16118 1-471) (enzyme)”, the binding result is recorded as “binds”.

(Values after publication doi:10.1101/2025.06.20.660667.)
